Publication PMC11897865
No constants are given. Whether binding was seen depends on the method and setting. Binding seen in cells or lysates may run through a third protein. These calls come from enrichment with a bait or labelling near it, and not all partners need be listed.

Amino acid sequences for entries named in this document (tags omitted). A change or cut given only in a name is not applied to a line headed by its entry. Residues count along the entry.
UniProt P30543: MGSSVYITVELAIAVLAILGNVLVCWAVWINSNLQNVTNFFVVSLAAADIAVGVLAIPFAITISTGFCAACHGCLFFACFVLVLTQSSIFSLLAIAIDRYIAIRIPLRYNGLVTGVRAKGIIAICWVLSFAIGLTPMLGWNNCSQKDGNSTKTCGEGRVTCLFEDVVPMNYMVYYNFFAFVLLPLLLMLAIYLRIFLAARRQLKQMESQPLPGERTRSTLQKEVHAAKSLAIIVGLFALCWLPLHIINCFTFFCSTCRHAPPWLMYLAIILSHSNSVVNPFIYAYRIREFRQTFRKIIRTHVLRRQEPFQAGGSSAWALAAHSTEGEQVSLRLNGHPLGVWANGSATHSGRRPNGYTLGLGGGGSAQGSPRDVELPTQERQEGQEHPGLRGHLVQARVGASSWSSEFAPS
UniProt P31424, residues 21-1203: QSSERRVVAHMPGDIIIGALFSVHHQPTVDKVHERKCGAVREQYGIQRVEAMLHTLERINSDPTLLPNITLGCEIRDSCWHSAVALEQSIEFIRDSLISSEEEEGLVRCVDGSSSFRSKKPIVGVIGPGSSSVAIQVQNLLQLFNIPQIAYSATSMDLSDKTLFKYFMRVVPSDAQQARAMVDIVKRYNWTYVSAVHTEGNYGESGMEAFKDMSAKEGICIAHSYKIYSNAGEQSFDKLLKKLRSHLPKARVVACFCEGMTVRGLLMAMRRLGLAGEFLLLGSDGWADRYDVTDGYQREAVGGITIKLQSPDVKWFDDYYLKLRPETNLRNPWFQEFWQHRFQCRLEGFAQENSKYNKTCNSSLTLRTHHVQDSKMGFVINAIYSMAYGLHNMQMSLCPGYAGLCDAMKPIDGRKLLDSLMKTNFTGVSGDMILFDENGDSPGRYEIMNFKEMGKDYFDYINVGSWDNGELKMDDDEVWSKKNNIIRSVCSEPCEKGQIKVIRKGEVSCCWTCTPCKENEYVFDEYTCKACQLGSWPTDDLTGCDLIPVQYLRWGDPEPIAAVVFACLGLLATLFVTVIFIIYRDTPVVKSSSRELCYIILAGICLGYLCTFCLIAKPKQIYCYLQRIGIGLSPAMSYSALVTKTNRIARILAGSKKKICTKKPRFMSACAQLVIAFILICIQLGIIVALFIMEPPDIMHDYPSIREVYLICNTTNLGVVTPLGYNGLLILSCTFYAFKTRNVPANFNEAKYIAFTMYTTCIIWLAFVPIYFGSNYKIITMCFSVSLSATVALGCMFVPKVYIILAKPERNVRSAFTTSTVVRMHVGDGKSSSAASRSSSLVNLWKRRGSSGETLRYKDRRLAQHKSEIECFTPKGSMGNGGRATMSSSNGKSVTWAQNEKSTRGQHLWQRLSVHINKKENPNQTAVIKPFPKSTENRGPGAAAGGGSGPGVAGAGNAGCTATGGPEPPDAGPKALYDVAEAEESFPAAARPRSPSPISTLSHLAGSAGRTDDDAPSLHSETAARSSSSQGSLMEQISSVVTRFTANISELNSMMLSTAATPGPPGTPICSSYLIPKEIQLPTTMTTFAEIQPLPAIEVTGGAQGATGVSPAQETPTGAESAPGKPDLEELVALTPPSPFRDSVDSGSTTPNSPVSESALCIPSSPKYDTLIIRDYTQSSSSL

Biological target: Adenosine A2A receptor (rat (endogenous in primary rat microglia)) (UniProt P30543)
Assay: affinity purification with mass spectrometry; anti-A2aR antibody or IgG on Protein A/G magnetic beads, mixed with lysate of primary rat microglia treated with chronic hypoxia, rotated overnight at 4°C; SDS-PAGE and MS; proteins unique to the IP group taken as potential A2aR-binding proteins

binding: binds
Substance: mGluR5 (from UniProt P31424 21-1203) (receptor)
